The record followed here is ChEMBL document CHEMBL6071153, “Design, synthesis, and evaluation of antitumor activity in Pseudolaric acid B Azole derivatives: Novel and potent angiogenesis inhibitor via regulation of the PI3K/AKT and MAPK mediated HIF-1/VEGF signaling pathway” (Eur J Med Chem, 2024).

In the assay the test system is MDA-MB-231. Kind of assay: Cytotoxicity against human MDA-MB-231 cells assessed as inhibition of cell growth incubated for 96 hrs under hypoxic condition by MTT assay. Type of assay: functional, cell-based. The conditions noted are these: MDA-MB-231, 96 h.

Molecules are shown by their SMILES.

Broadly, the IC50 is the point on the concentration scale where inhibition reaches its midpoint. `COc1cccc2c1C(=O)c1c(O)c3c(c(O)c1C2=O)C[C@@](O)(C(=O)CO)C[C@@H]3O[C@H]1C[C@H](N)[C@H](O)[C@H](C)O1` [DOXORUBICIN]: the IC50 was 600 nM.
